Assay results from patent US7214663B2, “Tripeptide prodrug compounds” (Medarex, Inc., priority 2001, dated 2007).
Not every detail of the peptide structures is certain; ends, links or a residue may be inferred. Marks after values point to notes of the source that are not given here.

Sequences of proteins named here, by UniProt entry; tags and fusion partners are left off.
UniProt P24155, whole entry: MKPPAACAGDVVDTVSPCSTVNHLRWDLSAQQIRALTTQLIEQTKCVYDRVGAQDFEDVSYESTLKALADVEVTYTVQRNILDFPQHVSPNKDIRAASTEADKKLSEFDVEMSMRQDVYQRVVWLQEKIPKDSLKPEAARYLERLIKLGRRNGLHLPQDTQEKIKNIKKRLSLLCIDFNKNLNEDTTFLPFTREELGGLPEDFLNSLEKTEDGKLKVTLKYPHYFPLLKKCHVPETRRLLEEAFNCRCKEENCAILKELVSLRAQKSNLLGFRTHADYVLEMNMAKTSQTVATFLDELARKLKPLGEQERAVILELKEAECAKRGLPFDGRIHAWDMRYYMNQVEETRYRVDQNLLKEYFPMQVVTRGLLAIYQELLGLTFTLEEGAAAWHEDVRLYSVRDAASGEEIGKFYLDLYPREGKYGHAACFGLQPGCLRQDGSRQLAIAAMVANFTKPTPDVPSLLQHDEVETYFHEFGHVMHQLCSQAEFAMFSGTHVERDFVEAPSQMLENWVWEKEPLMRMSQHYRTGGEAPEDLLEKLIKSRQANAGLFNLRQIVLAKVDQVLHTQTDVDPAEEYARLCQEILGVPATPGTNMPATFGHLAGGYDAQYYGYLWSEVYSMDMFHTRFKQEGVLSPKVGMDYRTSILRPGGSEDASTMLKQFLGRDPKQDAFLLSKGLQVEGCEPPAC

How the values were obtained:
[1] = system: HeLa cell anion exchange fraction (F1), trouase; test: Relative cleavage by HeLa cell anion exchange fraction (F1) versus Suc-βAla-Leu-Ala-Leu standard; format: biochemical, human; conditions: for Relative Rate of Cleavage: relative to Suc-βAla-Leu-Ala-Leu-Dox = 100 (Tables 11 and 12)
Protocol: Thirty billion commercially produced HeLa Cells (human cervical carcinoma, Computer Cell Culture Ceizter, Seneffe, Belgium) were homogenized with a sonicator and with a Dounce homogenizer in 108 mL of aqueous lysis solution. The lysis solution contained 0.02% w/v Triton X-100, 0.04% w/v sodium azide, and a cocktail of protease inhibitors (2 tablets/50 mL Complete™, EDTA-free tablets, Roche Molecular Biochemicals). The cell homogenate was centrifuged 30 minutes at 4° C. at 5000×g and the pellet was homogenized in a second 108 mL of lysis solution using a Dounce homogenizer and centrifuged as before. The supernatants were combined and centrifuged for 90 min at 145,000×g at 4° C.
A portion of the ultracentrifugation supernatant was diluted 2-fold with a 20 mM triethanolamine-HCl pH 7.2 buffer containing 0.01% (w/v) Triton X-100 and 0.02% (w/v) sodium azide (equilibration buffer). Thirty mL of the resulting solution, corresponding to approximately 180 mg of protein, was loaded at 4° C. on a 2.6×9.4 cm Source™ 15Q (Amersham Pharmacia Biotech) low pressure anion exchange chromatography column (1 ml/minute). The column was then washed with 250 ml of the equilibration buffer at a flow rate of 1 mL/minute. Proteins were eluted in a NaCl linear concentration gradient (0–0.5 M in the equilibration buffer, total volume of the gradient was 1000 ml) at a flow rate of 3 ml/minute. Two-minute fractions were collected and used for enzyme activity determination using βAla-Leu-Ala-Leu-Dox as the substrate. Its transformation into Ala-Leu-Dox was quantified by reverse phase high performance liquid chromatography utilizing fluorescence detection of the anthracycline moiety. The fractions containing the highest activity levels were pooled (fractions #43–46; ˜0.13 M NaCl), supplemented with protease inhibitors (Complete™, EDTA-free tablets, Roche Molecular Biochemicals), and stored as aliquots at −80° C.
Test compounds were incubated for 2 hr at 37° C. at a concentration of 12.5 μg/mL with HeLa cell anion exchange fraction (F1), as prepared in Example 1(c). Following incubation, three volumes of acetonitrile were added to stop the reaction and remove protein from the mixture. The sample was centrifuged at 18,000 g for 5 minutes and 100 μL of supernatant was mixed with 300 μL of water prior to analysis by HPLC. For HPLC analysis 50 μL of sample was injected on a 4.6×50 mm 2μ TSK Super-ODS chromatography column at 40° C. and eluted with a 3 minute linear gradient from 26% to 68% acetonitrile in aqueous 20 mM ammonium acetate pH 4.5 buffer at 2 mL/min. Detection was by fluorescence using an excitation wavelength of 235 nm and an emission wavelength of 560 nm. […]

[2] = system: human colon carcinoma (HT-29); test: HT-29 xenograft efficacy study
Excerpt: Healthy young male nude mice were subcutaneously injected with 5 million of HT-29 cells.

[3] = system: purified Porcine Kidney CD10; test: Hydrolysis by purified CD10; format: biochemical; conditions: for % hydrolysis/10 hr: 12.5 μg/mL, 37° C., pH 7.4, up to 10 hr; for Fraction hydrolyzed relative to standard: standard Suc-βAla-Leu-Ala-Leu-Dox
Protocol: Reaction products were analyzed by HPLC with fluorescence detection. Rates were essentially linear over the incubation period. The observed product was Leu-doxorubicin.

recombinant rat TOP = recombinant rat TOP (Rattus norvegicus, UniProt P24155); test: Relative cleavage tested with recombinant rat TOP; format: biochemical; conditions: relative to Suc-βAla-Leu-Ala-Leu standard
[4] = 40 mg/kg every 7 days for 5 doses
[5] = 67 mg/kg every 7 days for 5 doses

COc1cccc2c1C(=O)c1c(O)c3c(c(O)c1C2=O)C[C@@](O)(C(=O)CO)C[C@@H]3O[C@H]1C[C@H](NC(=O)CNC(=O)[C@H](C)NC(=O)[C@H](CC(C)C)NC(=O)CCC(=O)O)[C@H](O)[C@H](C)O1 [Suc-Leu-Ala-Gly-Dox]
Relative Cleavage % ([1]; 2 hr at 37° C., 12.5 μg/mL, HeLa F1, relative to Suc-βAla-Leu-Ala-Leu-(Dox or Dnr) standard): 40%
Relative Rate of Cleavage [1]: 40
% TGI (Day 14, mean) [2, 4]: 4.0%
% TGI (Day 25, median) [2, 4]: 37.2%
Calculated Mean Day of Survival [2, 4]: 38.8 ± 6.6 days
Mean Tumor Weight at Day 14 [2, 4]: 704 ± 92 mg
Median Tumor Weight at Day 25 [2, 4]: 952 mg
% TGI (Day 14, mean) [2, 5]: 33.2%*
% TGI (Day 25, median) [2, 5]: 43.5%
Calculated Mean Day of Survival [2, 5]: 41.3 ± 7.2 days
Mean Tumor Weight at Day 14 [2, 5]: 490 ± 124 mg
Median Tumor Weight at Day 25 [2, 5]: 857 mg
% hydrolysis/10 hr [3]: 0%
Fraction hydrolyzed relative to standard [3]: 0

COc1cccc2c1C(=O)c1c(O)c3c(c(O)c1C2=O)C[C@@](O)(C(=O)CO)C[C@@H]3O[C@H]1C[C@H](NC(=O)[C@H](CC(C)C)NC(=O)[C@H](Cc2ccc(O)cc2)NC(=O)[C@H](CC(C)C)NC(=O)CCC(=O)O)[C@H](O)[C@H](C)O1 [Suc-Leu-Tyr-Leu-Dox]
Relative Rate of Cleavage [1]: 14
Relative Cleavage % (recombinant rat TOP): 14%

COc1cccc2c1C(=O)c1c(O)c3c(c(O)c1C2=O)C[C@@](O)(C(=O)CO)C[C@@H]3O[C@H]1C[C@H](NC(=O)[C@H](CC(C)C)NC(=O)[C@H](C)NC(=O)[C@H](CC(C)C)NC(=O)CCNC(=O)CCC(=O)O)[C@H](O)[C@H](C)O1 [Suc-βAla-Leu-Ala-Leu-Dox, reference compound]
Relative Rate of Cleavage [1]: 100
% hydrolysis/10 hr [3]: 10.9%
Fraction hydrolyzed relative to standard [3]: 1.0
